# Experimental data as given in the supplement of paper PMC8728848.
# The list shows a part of the results.
# B1: Flo10 (Saccharomyces cerevisiae), P36170 (protein)
# chain: MPVAARYIFLTGLFLLSVANVALGTTEACLPAGEKKNGMTINFYQYSLKDSSTYSNPSYMAYGYADAEKLGSVSGQTKLSIDYSIPCNGASDTCACSDDDATEYSASQVVPVKRGVKLCSDNTTLSSKTEKRENDDCDQGAAYWSSDLFGFYTTPTNVTVEMTGYFLPPKTGTYTFGFATVDDSAILSVGGNVAFECCKQEQPPITSTDFTINGIKPWNADAPTDIKGSTYMYAGYYYPIKIVYSNAVSWGTLPVSVVLPDGTEVNDDFEGYVFSFDDNATQAHCSVPNPAEHARTCVSSATSSWSSSEVCTECTETESTSYVTPYVTSSSWSSSEVCTECTETESTSTSTPYVTSSSSSSSEVCTECTETESTSYVTPYVSSSTAAANYTSSFSSSSEVCTECTETESTSTSTPYVTSSSWSSSEVCTECTETESTSYVTPYVSSSTAAANYTSSFSSSSEVCTECTETESTSTSTPYVTSSSSSSSEVCTECTETESTSYVTPYVSSSTAAANYTSSFSSSSEVCTECTETESTSTSTPYVTSSSWSSSEVCTECTETESTSYVTPYVSSSTAAANYTSSFSSSSEVCTECTETESTSTSTPYATSSTGTATSFTASTSNTMTSLVQTDTTVSFSLSSTVSEHTNAPTSSVESNASTFISSNKGSVKSYVTSSIHSITPMYPSNQTVTSSSVVSTPITSESSESSASVTILPSTITSEFKPSTMKTKVVSISSSPTNLITSYDTTSKDSTVGSSTSSVSLISSISLPSSYSASSEQIFHSSIVSSNGQALTSFSSTKVSSSESSESHRTSPTTSSESGIKSSGVEIESTSTSSFSFHETSTASTSVQISSQFVTPSSPISTVAPRSTGLNSQTESTNSSKETMSSENSASVMPSSSATSPKTGKVTSDETSSGFSRDRTTVYRMTSETPSTNEQTTLITVSSCESNSCSNTVSSAVVSTATTTINGITTEYTTWCPLSATELTTVSKLESEEKTTLITVTSCESGVCSETASPAIVSTATATVNDVVTVYSTWSPQATNKLAVSSDIENSASKASFVSEAAETKSISRNNNFVPTSGTTSIETHTTTTSNASENSDNVSASEAVSSKSVTNPVLISVSQQPRGTPASSMIGSSTASLEMSSYLGIANHLLTNSGISIFIASLLLAIV
# Experiments:
# Assay in all cases: glycan array binding signal (z-score within array); higher = stronger binding
# Settings in all cases: glycan notation: IUPAC condensed, linker removed
# [1] = biological target: GalNAc(b1-3)Gal(a1-4)Gal(b1-4)GlcNAc
# Method in brief: (§1)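 Glycan array data came from 3228 arrays in the Consortium for Functional Glycomics database, and only arrays with an available protein sequence were kept. Glycan names were put into IUPAC-condensed notation, and columns mapping to the same glycan were averaged. The binding signal is a within-array Z-score, averaged across arrays of one protein sequence run at different concentrations or buffers and across linkers. A negative Z-score can be read as non-binding.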
# [2] = biological target: GalNAc(b1-3)Gal(a1-4)Gal(b1-4)GlcNAc(b1-3)Gal(b1-4)Glc
# Method in brief: as §1
# [3] = biological target: GalNAc(b1-3)Gal(a1-6)Gal(b1-4)Glc
# Method in brief: as §1
# GalNAc(b1-3)GalNAc = biological target: GalNAc(b1-3)GalNAc
# Method in brief: as §1
# GalNAc(b1-4)GlcNAc = biological target: GalNAc(b1-4)GlcNAc
# Method in brief: as §1
# [4] = biological target: GalNAc(b1-4)GlcNAc(b1-2)Man(a1-3)[GalNAc(b1-4)GlcNAc(b1-2)Man(a1-6)]Man(b1-4)GlcNAc(b1-4)GlcNAc
# Method in brief: as §1
# Glc(a1-4)Glc = biological target: Glc(a1-4)Glc
# Method in brief: as §1
# Glc(a1-6)Glc(a1-6)Glc = biological target: Glc(a1-6)Glc(a1-6)Glc
# Method in brief: as §1
# Glc(b1-4)Glc = biological target: Glc(b1-4)Glc
# Method in brief: as §1
# Glc(b1-6)Glc = biological target: Glc(b1-6)Glc
# Method in brief: as §1
# GlcA(b1-3)Gal = biological target: GlcA(b1-3)Gal
# Method in brief: as §1
# GlcA(b1-3)GlcNAc = biological target: GlcA(b1-3)GlcNAc
# Method in brief: as §1
# GlcA(b1-6)Gal = biological target: GlcA(b1-6)Gal
# Method in brief: as §1
# [5] = biological target: GlcNAc(a1-3)Gal(b1-4)GlcNAc
# Method in brief: as §1
# [6] = biological target: GlcNAc(a1-4)Gal(b1-3)GlcNAc
# Method in brief: as §1
# [7] = biological target: GlcNAc(a1-4)Gal(b1-4)GalNAc
# Method in brief: as §1
# [8] = biological target: GlcNAc(a1-4)Gal(b1-4)GlcNAc
# Method in brief: as §1
# [9] = biological target: GlcNAc(a1-4)Gal(b1-4)GlcNAc(b1-3)Gal(b1-4)Glc
# Method in brief: as §1
# [10] = biological target: GlcNAc(a1-4)Gal(b1-4)GlcNAc(b1-3)Gal(b1-4)GlcNAc
# Method in brief: as §1
# [11] = biological target: GlcNAc(a1-4)Gal(b1-4)GlcNAc(b1-3)Gal(b1-4)GlcNAc(b1-3)Gal(b1-4)GlcNAc
# Method in brief: as §1
# [12] = biological target: GlcNAc(a1-4)Gal(b1-4)GlcNAc(b1-3)Gal(b1-4)[Fuc(a1-3)]GlcNAc(b1-3)Gal(b1-4)[Fuc(a1-3)]GlcNAc
# Method in brief: as §1
# [13] = biological target: GlcNAc(a1-6)Gal(b1-4)GlcNAc
# Method in brief: as §1
# [14] = biological target: GlcNAc(b1-2)Gal(b1-3)GalNAc
# Method in brief: as §1
# [15] = biological target: GlcNAc(b1-2)Man(a1-3)[GlcNAc(b1-2)Man(a1-6)]Man(b1-4)GlcNAc(b1-4)GlcNAc
# Method in brief: as §1
# [16] = biological target: GlcNAc(b1-2)Man(a1-3)[GlcNAc(b1-2)Man(a1-6)]Man(b1-4)GlcNAc(b1-4)[Fuc(a1-6)]GlcNAc
# Method in brief: as §1
# [17] = biological target: GlcNAc(b1-2)[GlcNAc(b1-4)]Man(a1-3)[GlcNAc(b1-2)Man(a1-6)]Man(b1-4)GlcNAc(b1-4)GlcNAc
# Method in brief: as §1
# GlcNAc(b1-3)Gal = biological target: GlcNAc(b1-3)Gal
# Method in brief: as §1
# [18] = biological target: GlcNAc(b1-3)Gal(b1-3)GalNAc
# Method in brief: as §1
# GlcNAc(b1-3)Gal(b1-4)Glc = biological target: GlcNAc(b1-3)Gal(b1-4)Glc
# Method in brief: as §1
# [19] = biological target: GlcNAc(b1-3)Gal(b1-4)GlcNAc
# Method in brief: as §1
# [20] = biological target: GlcNAc(b1-3)Gal(b1-4)GlcNAc(b1-3)Gal(b1-4)GlcNAc
# Method in brief: as §1
# GlcNAc(b1-3)GalNAc = biological target: GlcNAc(b1-3)GalNAc
# Method in brief: as §1
# GlcNAc(b1-3)Man = biological target: GlcNAc(b1-3)Man
# Method in brief: as §1
# [21] = biological target: GlcNAc(b1-3)[GlcNAc(b1-4)][GlcNAc(b1-6)]GlcNAc
# Method in brief: as §1
# [22] = biological target: GlcNAc(b1-3)[GlcNAc(b1-6)]Gal(b1-4)GlcNAc
# Method in brief: as §1
# [23] = biological target: GlcNAc(b1-3)[GlcNAc(b1-6)]GalNAc
# Method in brief: as §1
# [24] = biological target: GlcNAc(b1-4)Gal(b1-4)GlcNAc
# Method in brief: as §1
# GlcNAc(b1-4)GlcNAc = biological target: GlcNAc(b1-4)GlcNAc
# Method in brief: as §1
# [25] = biological target: GlcNAc(b1-4)GlcNAc(b1-4)GlcNAc
# Method in brief: as §1
# [26] = biological target: GlcNAc(b1-4)GlcNAc(b1-4)GlcNAc(b1-4)GlcNAc(b1-4)GlcNAc
# Method in brief: as §1
# [27] = biological target: GlcNAc(b1-4)GlcNAc(b1-4)GlcNAc(b1-4)GlcNAc(b1-4)GlcNAc(b1-4)GlcNAc
# Method in brief: as §1
# [28] = biological target: GlcNAc(b1-4)[GlcNAc(b1-6)]GalNAc
# Method in brief: as §1
# [29] = biological target: GlcNAc(b1-6)Gal(b1-4)GlcNAc
# Method in brief: as §1
# GlcNAc(b1-6)GalNAc = biological target: GlcNAc(b1-6)GalNAc
# Method in brief: as §1
# GlcNAc3Prop(b1-4)GlcNAc = biological target: GlcNAc3Prop(b1-4)GlcNAc
# Method in brief: as §1
binder,measurement,setting,value
B1,glycan array binding signal (z-score),[1],-0.086
same,glycan array binding signal (z-score),[2],0.051
same,glycan array binding signal (z-score),[3],-0.154
same,glycan array binding signal (z-score),GalNAc(b1-3)GalNAc,0.005
same,glycan array binding signal (z-score),GalNAc(b1-4)GlcNAc,0.528
same,glycan array binding signal (z-score),[4],-0.5
same,glycan array binding signal (z-score),Glc(a1-4)Glc,-0.77
same,glycan array binding signal (z-score),Glc(a1-6)Glc(a1-6)Glc,0.586
same,glycan array binding signal (z-score),Glc(b1-4)Glc,-0.429
same,glycan array binding signal (z-score),Glc(b1-6)Glc,-0.68
same,glycan array binding signal (z-score),GlcA(b1-3)Gal,-0.688
same,glycan array binding signal (z-score),GlcA(b1-3)GlcNAc,-0.631
same,glycan array binding signal (z-score),GlcA(b1-6)Gal,0.66
same,glycan array binding signal (z-score),[5],0.846
same,glycan array binding signal (z-score),[6],0.028
same,glycan array binding signal (z-score),[7],0.33
same,glycan array binding signal (z-score),[8],0.909
same,glycan array binding signal (z-score),[9],-0.191
same,glycan array binding signal (z-score),[10],1.27
same,glycan array binding signal (z-score),[11],-0.649
same,glycan array binding signal (z-score),[12],-0.159
same,glycan array binding signal (z-score),[13],-0.682
same,glycan array binding signal (z-score),[14],-0.768
same,glycan array binding signal (z-score),[15],-0.394
same,glycan array binding signal (z-score),[16],-0.276
same,glycan array binding signal (z-score),[17],0.012
same,glycan array binding signal (z-score),GlcNAc(b1-3)Gal,-0.619
same,glycan array binding signal (z-score),[18],2.82
same,glycan array binding signal (z-score),GlcNAc(b1-3)Gal(b1-4)Glc,-0.205
same,glycan array binding signal (z-score),[19],-0.536
same,glycan array binding signal (z-score),[20],-0.29
same,glycan array binding signal (z-score),GlcNAc(b1-3)GalNAc,-0.711
same,glycan array binding signal (z-score),GlcNAc(b1-3)Man,1.02
same,glycan array binding signal (z-score),[21],0.63
same,glycan array binding signal (z-score),[22],-0.477
same,glycan array binding signal (z-score),[23],-0.39
same,glycan array binding signal (z-score),[24],-0.716
same,glycan array binding signal (z-score),GlcNAc(b1-4)GlcNAc,-0.12
same,glycan array binding signal (z-score),[25],-0.506
same,glycan array binding signal (z-score),[26],-0.892
same,glycan array binding signal (z-score),[27],-0.661
same,glycan array binding signal (z-score),[28],-0.642
same,glycan array binding signal (z-score),[29],-0.298
same,glycan array binding signal (z-score),GlcNAc(b1-6)GalNAc,-0.656
same,glycan array binding signal (z-score),GlcNAc3Prop(b1-4)GlcNAc,-0.731

# Two entries drawn at random from the list so far, as already listed:
binder,measurement,setting,value
B1,glycan array binding signal (z-score),GlcNAc(b1-3)Gal(b1-4)Glc,-0.205
same,glycan array binding signal (z-score),GlcNAc(b1-3)Gal,-0.619
